According to PubChem BioAssay AID2551 (National Center for Advancing Translational Sciences (NCATS), 2010):
About 17,000 (5.5%) of roughly 310,000 compounds were called active. The shares of active, inactive and inconclusive entries below differ from those in the screen. Calls follow the shape of the dose curve; as a rule, active = well fitted inhibition curve with a large enough effect; inconclusive = small, poorly fitted or top-dose-only effect, or effect the other way; inactive = no such curve, though single readings can be large or run the other way. Potencies of inconclusive entries are doubtful fits and often do not repeat.

By UniProt entry, the sequences of proteins in these tests, tags left out. Where a name states a change or a piece, a line headed by the entry shows the natural chain unless it says otherwise.
UniProt P51450: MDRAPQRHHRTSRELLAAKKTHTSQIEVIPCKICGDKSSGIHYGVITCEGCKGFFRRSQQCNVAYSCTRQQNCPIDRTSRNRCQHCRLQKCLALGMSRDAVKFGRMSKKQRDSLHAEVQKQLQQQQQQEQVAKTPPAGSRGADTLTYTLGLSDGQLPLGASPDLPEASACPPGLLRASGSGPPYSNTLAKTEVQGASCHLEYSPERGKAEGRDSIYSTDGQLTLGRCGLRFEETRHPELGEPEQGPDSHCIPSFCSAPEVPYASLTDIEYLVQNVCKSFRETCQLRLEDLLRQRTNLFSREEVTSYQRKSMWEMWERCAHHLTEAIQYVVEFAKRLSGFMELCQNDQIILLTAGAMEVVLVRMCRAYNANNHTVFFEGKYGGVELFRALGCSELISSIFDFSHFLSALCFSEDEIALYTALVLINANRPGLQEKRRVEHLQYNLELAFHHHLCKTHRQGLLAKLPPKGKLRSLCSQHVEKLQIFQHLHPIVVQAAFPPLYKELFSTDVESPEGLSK

Target: Nuclear receptor ROR-gamma (Mus musculus) (UniProt P51450)
Experiment: qHTS for inhibitors of ROR gamma transcriptional activity; also: nearly all actives have a fitted effect of over 60% in size
Conditions: Drosophila S2 Gal4-RORgamma UAS-luciferase reporter, 20 h; series mostly up to 53.6 µM
Summary of the method: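 Stable Schneider cell line, Gal4 DNA-binding domain fused to ROR gamma, UAS-luciferase. Cmpd 1 hr RT → CuSO4 700 uM final → 20 hr RT → luciferase reagent 10 min → luminescence.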
Potency is read from the fitted curve at half-maximal effect.

Compound | Potency
CC1CCC/C(=N\NC(=S)Nc2ccccc2)C1 (stereo not given) | active: 7.94 µM
C/C(CC(=O)Nc1ccccc1-c1ccccc1)=N\NC(=O)COc1ccc(C)cc1Br | inconclusive: 15.8 µM [inhibitor, single point]
COc1cccc(C(=O)Nc2nc3ccccc3s2)c1 | active: 12.6 µM
Oc1ccccc1-c1cc(-c2ccco2)[nH]n1 | inconclusive: 17.8 µM [inhibitor, single point]
CCCCc1ccc(NC(=O)C(C)CC)cc1 (stereo not given) | active: 1.41 µM
COCCCn1cnc2oc3nc4ccccc4nc3c2c1=O | inconclusive: 17.8 µM [inhibitor, single point]
CCCCC[C@H]1CN(Cc2ccccc2)C(=O)[C@@H]1CC(=O)NCc1ccc(OC)cc1 | inconclusive: 35.5 µM [activator, single point]
COCCn1c(SCC(=O)Nc2cccc(F)c2)nc2c([nH]c3ccccc32)c1=O | inactive
COc1ccc(NC(=O)N2CCc3cc(OC)c(OC)cc3C2)cc1 | inconclusive: 20 µM [activator, single point]
O=C(Cn1cc(/C=N/NC(=O)c2cccc(C(F)(F)F)c2)c2ccccc21)Nc1ccc(F)cc1 | active: 11.2 µM
Cc1ccc(NC(=O)N2CCN(S(=O)(=O)c3ccccc3)CC2)cc1 | inactive
Cc1ccc2oc3c(c(=O)c2c1)C(c1cccs1)N(CCCN(C)C)C3=O (stereo not given) | inconclusive: 12.6 µM [inhibitor, single point]
COc1cccc(C(=O)N/N=C(/CCC(=O)O)c2ccccc2)c1 | inconclusive: 15.8 µM [inhibitor, single point]
Cc1cccnc1NC(=O)Cn1nc(-c2ccccc2)oc1=S | inconclusive: 12.6 µM [inhibitor, partial curve]
Cc1sc(NC(=O)c2ccccc2)c(C(c2ccc(Cl)cc2)N2CCN(CCO)CC2)c1C (stereo not given) | inconclusive: 35.5 µM [inhibitor, single point]
Cc1cc(C)cc(NCc2cc(=O)oc3cc(-c4ccccc4)c(O)cc23)c1 | inconclusive: 35.5 µM [inhibitor, single point]
COc1ccc2nc(NC(=O)CS(=O)(=O)Cc3ccccc3)sc2c1 | inconclusive: 28.2 µM [inhibitor, single point]
CCN(C(=O)CCc1nnc2ccc(NCc3ccco3)nn12)c1ccccc1 | inconclusive: 7.08 µM [activator, partial curve]
CCN(CCCCCN(C)C)Cc1cc2ccccc2o1 | inactive
Cc1ccc(C2=NN(CCC#N)C(=O)CO2)cc1 | inactive
Cc1cc(C)c(NC(=O)C2CCCO2)c(C)c1NC(=O)C1CCCO1 (stereo not given) | inactive
CCCc1ccc2oc(C(=O)NCCCN3CCOCC3)c(C)c2c1 | inactive
Cc1ccc(NC(=O)C2CCCN(C(=O)c3ccc(Cl)cc3)C2)cc1C (stereo not given) | inconclusive: 6.31 µM [activator, partial curve]
COc1ccc(-c2cncnc2-c2ccc(OC)cc2O)cc1 | inconclusive: 35.5 µM [inhibitor, single point]
c1ccc(-c2cccc(N3CCC4(CCNCC4)CC3)c2)cc1 | inconclusive: 17.8 µM [inhibitor, single point]

Compound | Potency
Cc1nc2ccc(-c3nc4cc(N)ccc4o3)cc2[nH]1 | active: 15.8 µM
CCn1c(C(=O)O)c(CC(=O)Nc2cccc(C(F)(F)F)c2)c2ccccc21 | inactive
Cc1ccc(-c2n[nH]c(=S)nc2-c2ccc(C)cc2)cc1 | active: 5.01 µM
CCOC(=O)c1c(NC(=O)Cn2nc(C(F)F)cc2C(F)F)sc(C)c1C | inconclusive: 2.24 µM [inhibitor, full curve, poor fit]
Cn1c(SCC(=O)N/N=C/C=C/c2ccccc2[N+](=O)[O-])nc2ccccc21 | inactive
CC(C)CCc1noc(CN2CCN(CC(=O)NC(C)C)CC2)n1 | inconclusive: 35.5 µM [activator, single point]
CCCCc1nnc(SC(C)C(=O)Nc2nccs2)n1C (stereo not given) | inactive
Cc1cc(C)n(-c2nc3ccccc3c(=O)n2OCC(C)C)n1 | inconclusive: 8.91 µM [inhibitor, partial curve]
COc1ccnc(CSC(N)=Nc2ccc(F)cc2)c1 | active: 10 µM
O=C(N/N=C/c1cccc(O)c1)c1ccc(COc2ccccc2Br)cc1 | inconclusive: 35.5 µM [inhibitor, single point]
O=C(/C=C\Nc1ccccn1)c1ccc(Cl)cc1 | active: 7.08 µM
COC(=O)CCCn1c(C)cc(C(=O)CCl)c1C | active: 8.91 µM
CCOCN(C(=O)Cn1c(COC)nc2ccccc21)c1c(C)cccc1CC | inconclusive: 4.47 µM [inhibitor, partial curve]
Cc1cccc(Nc2nnc(SC/C(O)=C(\C#N)c3nc4ccccc4[nH]3)s2)c1C | inconclusive: 35.5 µM [inhibitor, single point]
CCN(CC)S(=O)(=O)c1ccc(-n2c(=O)c(C(C)C)c(C)n2C)cc1 | inconclusive: 35.5 µM [activator, single point]
CCOC(=O)C1CCCN(C(=O)CCCn2c(=O)c3cccn3c3cccnc32)C1 (stereo not given) | inconclusive: 35.5 µM [inhibitor, single point]
CCSc1ccc(-c2cccc([N+](=O)[O-])c2)nn1 | inactive
CCc1c(C)n([O-])c2c([n+]1=O)CCCCC2 | inconclusive: 11.2 µM [inhibitor, partial curve]
CCN=C1S/C(=C\c2cn(CC(=O)NCc3ccco3)c3ccccc23)C(=O)N1CC | inconclusive: 1.78 µM [activator, partial curve, poor fit]
O=C(/C=C/c1ccc(OCCCF)cc1)N1CCOCC1 | inactive
O=C(Cc1ccccc1)Nc1ccc(-c2nnc(-c3ccco3)o2)cc1 | inconclusive: 1.12 µM [inhibitor, full curve, poor fit]
COc1ccc(N(CC(=O)NCCSc2ccccn2)S(=O)(=O)c2ccccc2)c(OC)c1 | inactive
O=C(c1ccc2ccccc2c1)N1CCN(c2ccccc2)CC1 | inactive
N#Cc1nc(-c2cccc3ccccc23)oc1NCCN1CCCCC1 | inactive
COCCn1cnnc1SCC(=O)Nc1cc(OC)c([N+](=O)[O-])cc1C | inactive

6 entries from above, ordered by heavy-atom count, ascending:
Compound | Potency
Cc1cc(C)n(-c2nc3ccccc3c(=O)n2OCC(C)C)n1 | inconclusive: 8.91 µM [inhibitor, partial curve]
O=C(c1ccc2ccccc2c1)N1CCN(c2ccccc2)CC1 | inactive
CCN(CC)S(=O)(=O)c1ccc(-n2c(=O)c(C(C)C)c(C)n2C)cc1 | inconclusive: 35.5 µM [activator, single point]
Cn1c(SCC(=O)N/N=C/C=C/c2ccccc2[N+](=O)[O-])nc2ccccc21 | inactive
CCOCN(C(=O)Cn1c(COC)nc2ccccc21)c1c(C)cccc1CC | inconclusive: 4.47 µM [inhibitor, partial curve]
CCN=C1S/C(=C\c2cn(CC(=O)NCc3ccco3)c3ccccc23)C(=O)N1CC | inconclusive: 1.78 µM [activator, partial curve, poor fit]

Continued:

Compound | Potency
COc1c(C(=O)Nc2nccs2)ccc2ccccc12 | inactive
COc1cc(-c2cccc([C@H]3[C@@H]4C=CC[C@@H](C)[C@@H]4C(=O)N3Cc3ccccc3)c2)cc(OC)c1OC | inactive
CCCC(=O)NC(c1cccs1)c1cc(Cl)c2cccnc2c1O (stereo not given) | active: 0.398 µM
Nc1nc(CCl)nc(Nc2cccc3ccccc23)n1 | active: 11.2 µM
CCC(C)(C)NC(=O)C(c1cccn1C)N(C(=O)Cn1nnc2ccccc21)c1ccccc1OC (stereo not given) | inconclusive: 22.4 µM [activator, single point]
Cc1c(Cl)cccc1NC(=S)N(CCN(C)C)C(C)c1ccccn1 (stereo not given) | active: 12.6 µM
Cc1ccc(C)c(-n2[nH]c3c4c(ccc3c2=O)C(=O)c2ccccc2C4=O)c1 | active: 6.31 µM
CCn1c2ccccc2c2cc(NC(=O)c3cccc(OC)c3OC)ccc21 | inconclusive: 22.4 µM [activator, single point]
Nc1nonc1-n1nnc(C(=O)N/N=C/C=C/c2ccccc2)c1CSC1=NCCS1 | active: 1.41 µM
COc1ccccc1C(=O)OCC(=O)Nc1ccc(OC(F)F)cc1 | inconclusive: 5.62 µM [activator, single point]
C/C(=N\NC(=O)c1cccs1)C(C)(C)C | active: 12.6 µM
CC(C)(C)[C@@H]1CCC(=O)N(CC[C@H](N=[N+]=[N-])c2ccccc2)CC1 | inconclusive: 0.0562 µM [activator, full curve, poor fit]
C=C(C)CSc1nc(N)c2c3c(sc2n1)CCC3 | inconclusive: 1.26 µM [activator, full curve]
COc1ccc(-c2nn(-c3ccccc3)cc2/C=N/Nc2ccccn2)cc1OC | active: 7.08 µM
COc1ccc(NC(=S)N2C3CCC2CC(NC(=O)NC24CC5CC(CC(C5)C2)C4)C3)c(OC)c1 (stereo not given) | inconclusive: 2.51 µM [inhibitor, partial curve, poor fit]
CCc1nn(C(C)C(=O)NC(C)CCc2ccco2)c(=O)c2cc3occc3n12 (stereo not given) | inconclusive: 35.5 µM [inhibitor, single point]
CC(c1nccs1)N(C)c1nc2nonc2nc1NC1CC1 (stereo not given) | inactive
CCN(CC)c1ccc(/C=C(/C#N)C(=O)NCc2ccccc2)o1 | inconclusive: 3.16 µM [activator, full curve]
O=C(N/N=C/c1ccc(N2CCOCC2)s1)c1ccccc1Cl | active: 7.94 µM
CCc1[nH]nc(C(=O)N2CCCC(C(=O)c3cccc(C(F)(F)F)c3)C2)c1C (stereo not given) | inconclusive: 20 µM [activator, single point]
Cn1cccc1C(=O)NCc1ccc(Cl)cc1 | inactive
O=C(CCCSc1nc2ccccc2[nH]1)Nc1nnc(-c2ccccc2)o1 | active: 12.6 µM
O=C(c1ccc(Oc2ccc(C(F)(F)F)cn2)cc1)N1CCN(c2ccccc2)CC1 | inconclusive: 35.5 µM [activator, single point]
COc1ccc(N2C(=S)NC3c4cc(Cl)ccc4OC2(C)C3C(=O)N(C)C)cc1 (stereo not given) | inconclusive: 20 µM [inhibitor, partial curve, poor fit]
COc1ccc(N2CCN(C(=O)CSc3nc4[nH]ncc4c(=O)n3-c3cccc4ccccc34)CC2)cc1 | inconclusive: 35.5 µM [inhibitor, single point]
